# Test results published in the supplement of paper PMC8728848.
# The other results are listed elsewhere or left out.
# B1: S100A12 (Homo sapiens), P80511 (protein)
# chain: MTKLEEHLEGIVNIFHQYSVRKGHFDTLSKGELKQLLTKELANTIKNIKDKAVIDEIFQGLDANQDEQVDFQEFISLVAIALKAAHYHTHKE
# Key:
# Assay in all cases: glycan array binding signal (z-score within array); higher = stronger binding
# Conditions in all cases: glycan notation: IUPAC condensed, linker removed
# GlcA(b1-6)Gal = molecular target: GlcA(b1-6)Gal
# In short: (§1)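 Glycan array data were curated from 3228 arrays in the Consortium for Functional Glycomics database and kept only where the protein sequence was available. Glycan names were converted to IUPAC-condensed notation, and columns mapping to the same glycan were averaged. The binding signal is a within-array Z-score, averaged across arrays of the same protein sequence at different concentrations or buffers and across linkers. Negative Z-scores can be read as non-binding.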
# [1] = molecular target: GlcNAc(a1-3)Gal(b1-4)GlcNAc
# In short: as §1
# [2] = molecular target: GlcNAc(a1-6)Gal(b1-4)GlcNAc
# In short: as §1
# [3] = molecular target: GlcNAc(b1-2)Gal(b1-3)GalNAc
# In short: as §1
# [4] = molecular target: GlcNAc(b1-2)Gal(b1-3)GlcNAc
# In short: as §1
# [5] = molecular target: GlcNAc(b1-2)Man(a1-3)[GlcNAc(b1-2)Man(a1-6)]Man(b1-4)GlcNAc(b1-4)GlcNAc
# In short: as §1
# GlcNAc(b1-3)Gal = molecular target: GlcNAc(b1-3)Gal
# In short: as §1
# [6] = molecular target: GlcNAc(b1-3)Gal(b1-3)GalNAc
# In short: as §1
# GlcNAc(b1-3)Gal(b1-4)Glc = molecular target: GlcNAc(b1-3)Gal(b1-4)Glc
# In short: as §1
# [7] = molecular target: GlcNAc(b1-3)Gal(b1-4)GlcNAc
# In short: as §1
# [8] = molecular target: GlcNAc(b1-3)Gal(b1-4)GlcNAc(b1-3)Gal(b1-4)GlcNAc
# In short: as §1
# GlcNAc(b1-3)GalNAc = molecular target: GlcNAc(b1-3)GalNAc
# In short: as §1
# [9] = molecular target: GlcNAc(b1-3)[GlcNAc(b1-4)][GlcNAc(b1-6)]GlcNAc
# In short: as §1
# [10] = molecular target: GlcNAc(b1-3)[GlcNAc(b1-6)]Gal(b1-4)GlcNAc
# In short: as §1
# [11] = molecular target: GlcNAc(b1-3)[GlcNAc(b1-6)]GalNAc
# In short: as §1
# [12] = molecular target: GlcNAc(b1-3)[GlcNAc(b1-6)]GlcNAc
# In short: as §1
# [13] = molecular target: GlcNAc(b1-3)[GlcNAc(b1-6)]GlcNAc(b1-4)GlcNAc
# In short: as §1
# [14] = molecular target: GlcNAc(b1-4)Gal(b1-4)GlcNAc
# In short: as §1
# [15] = molecular target: GlcNAc(b1-4)GlcNAc(b1-4)GlcNAc
# In short: as §1
# [16] = molecular target: GlcNAc(b1-4)GlcNAc(b1-4)GlcNAc(b1-4)GlcNAc(b1-4)GlcNAc
# In short: as §1
# [17] = molecular target: GlcNAc(b1-4)GlcNAc(b1-4)GlcNAc(b1-4)GlcNAc(b1-4)GlcNAc(b1-4)GlcNAc
# In short: as §1
# [18] = molecular target: GlcNAc(b1-4)[GlcNAc(b1-6)]GalNAc
# In short: as §1
# [19] = molecular target: GlcNAc(b1-6)Gal(b1-4)GlcNAc
# In short: as §1
# GlcNAc(b1-6)GalNAc = molecular target: GlcNAc(b1-6)GalNAc
# In short: as §1
# Kdn(a2-3)Gal(b1-3)GlcNAc = molecular target: Kdn(a2-3)Gal(b1-3)GlcNAc
# In short: as §1
# Kdn(a2-3)Gal(b1-4)GlcNAc = molecular target: Kdn(a2-3)Gal(b1-4)GlcNAc
# In short: as §1
# [20] = molecular target: Man(a1-2)Man(a1-2)Man(a1-3)Man
# In short: as §1
# [21] = molecular target: Man(a1-2)Man(a1-2)Man(a1-3)[Man(a1-2)Man(a1-3)[Man(a1-2)Man(a1-6)]Man(a1-6)]Man(b1-4)GlcNAc(b1-4)GlcNAc
# In short: as §1
# [22] = molecular target: Man(a1-2)Man(a1-2)Man(a1-3)[Man(a1-2)Man(a1-6)[Man(a1-3)]Man(a1-6)]Man(b1-4)GlcNAc(b1-4)GlcNAc
# In short: as §1
# [23] = molecular target: Man(a1-2)Man(a1-2)Man(a1-6)[Man(a1-3)]Man
# In short: as §1
# Man(a1-2)Man(a1-3)Man = molecular target: Man(a1-2)Man(a1-3)Man
# In short: as §1
# [24] = molecular target: Man(a1-2)Man(a1-3)[Man(a1-2)Man(a1-6)]Man
# In short: as §1
# [25] = molecular target: Man(a1-2)Man(a1-3)[Man(a1-2)Man(a1-6)]Man(a1-6)[Man(a1-2)Man(a1-2)Man(a1-3)]Man(b1-4)GlcNAc(b1-4)GlcNAc
# In short: as §1
# [26] = molecular target: Man(a1-2)Man(a1-3)[Man(a1-3)[Man(a1-6)]Man(a1-6)]Man(b1-4)GlcNAc(b1-4)GlcNAc
# In short: as §1
# [27] = molecular target: Man(a1-2)Man(a1-3)[Man(a1-6)]Man(a1-6)[Man(a1-2)Man(a1-3)]Man(b1-4)GlcNAc(b1-4)GlcNAc
# In short: as §1
# [28] = molecular target: Man(a1-2)Man(a1-6)[Man(a1-3)]Man(a1-6)[Man(a1-2)Man(a1-2)Man(a1-3)]Man(b1-4)GlcNAc(b1-4)GlcNAc
# In short: as §1
# Man(a1-3)[Man(a1-6)]Man = molecular target: Man(a1-3)[Man(a1-6)]Man
# In short: as §1
# [29] = molecular target: Man(a1-3)[Man(a1-6)]Man(a1-6)[Man(a1-2)Man(a1-3)]Man(b1-4)GlcNAc(b1-4)GlcNAc
# In short: as §1
# [30] = molecular target: Man(a1-3)[Man(a1-6)]Man(a1-6)[Man(a1-3)]Man(b1-4)GlcNAc(b1-4)GlcNAc
# In short: as §1
# [31] = molecular target: Man(a1-3)[Man(a1-6)]Man(b1-4)GlcNAc(b1-4)GlcNAc
# In short: as §1
# Man(b1-4)GlcNAc = molecular target: Man(b1-4)GlcNAc
# In short: as §1
# Neu5Ac(a2-3)Gal = molecular target: Neu5Ac(a2-3)Gal
# In short: as §1
# [32] = molecular target: Neu5Ac(a2-3)Gal(b1-3)GalNAc
# In short: as §1
# [33] = molecular target: Neu5Ac(a2-3)Gal(b1-3)GalNAc(b1-3)Gal(a1-4)Gal(b1-4)Glc
# In short: as §1
# [34] = molecular target: Neu5Ac(a2-3)Gal(b1-3)GalNAc(b1-3)Gal(b1-4)GlcNAc
# In short: as §1
binder,measurement,setting,value
B1,glycan array binding signal (z-score),GlcA(b1-6)Gal,0.942
same,glycan array binding signal (z-score),[1],-0.594
same,glycan array binding signal (z-score),[2],-0.634
same,glycan array binding signal (z-score),[3],-0.593
same,glycan array binding signal (z-score),[4],-0.286
same,glycan array binding signal (z-score),[5],1.79
same,glycan array binding signal (z-score),GlcNAc(b1-3)Gal,-0.631
same,glycan array binding signal (z-score),[6],-0.414
same,glycan array binding signal (z-score),GlcNAc(b1-3)Gal(b1-4)Glc,-0.58
same,glycan array binding signal (z-score),[7],0.954
same,glycan array binding signal (z-score),[8],-0.29
same,glycan array binding signal (z-score),GlcNAc(b1-3)GalNAc,-0.743
same,glycan array binding signal (z-score),[9],-0.522
same,glycan array binding signal (z-score),[10],-0.74
same,glycan array binding signal (z-score),[11],-0.61
same,glycan array binding signal (z-score),[12],-0.408
same,glycan array binding signal (z-score),[13],-0.525
same,glycan array binding signal (z-score),[14],-0.673
same,glycan array binding signal (z-score),[15],-0.009
same,glycan array binding signal (z-score),[16],0.739
same,glycan array binding signal (z-score),[17],-0.158
same,glycan array binding signal (z-score),[18],-0.827
same,glycan array binding signal (z-score),[19],-0.309
same,glycan array binding signal (z-score),GlcNAc(b1-6)GalNAc,-0.903
same,glycan array binding signal (z-score),Kdn(a2-3)Gal(b1-3)GlcNAc,-0.712
same,glycan array binding signal (z-score),Kdn(a2-3)Gal(b1-4)GlcNAc,-0.365
same,glycan array binding signal (z-score),[20],0.541
same,glycan array binding signal (z-score),[21],-0.337
same,glycan array binding signal (z-score),[22],-0.57
same,glycan array binding signal (z-score),[23],-0.584
same,glycan array binding signal (z-score),Man(a1-2)Man(a1-3)Man,-0.103
same,glycan array binding signal (z-score),[24],-0.312
same,glycan array binding signal (z-score),[25],0.455
same,glycan array binding signal (z-score),[26],-0.302
same,glycan array binding signal (z-score),[27],-0.256
same,glycan array binding signal (z-score),[28],0.054
same,glycan array binding signal (z-score),Man(a1-3)[Man(a1-6)]Man,-0.452
same,glycan array binding signal (z-score),[29],-0.056
same,glycan array binding signal (z-score),[30],-0.044
same,glycan array binding signal (z-score),[31],0.408
same,glycan array binding signal (z-score),Man(b1-4)GlcNAc,-0.475
same,glycan array binding signal (z-score),Neu5Ac(a2-3)Gal,-0.154
same,glycan array binding signal (z-score),[32],-0.381
same,glycan array binding signal (z-score),[33],-0.03
same,glycan array binding signal (z-score),[34],-0.704

# Fetched one by one from the list above, two records:
binder,measurement,setting,value
B1,glycan array binding signal (z-score),[13],-0.525
same,glycan array binding signal (z-score),[30],-0.044
